No constants are given. Whether binding was seen depends on the method and setting. Binding seen in cells or lysates may run through a third protein. Some results given as binding are weak or reduced against the parent protein; the word gives no strength.

The chains behind the UniProt entries cited, without tags or fusion partners.
UniProt P62137: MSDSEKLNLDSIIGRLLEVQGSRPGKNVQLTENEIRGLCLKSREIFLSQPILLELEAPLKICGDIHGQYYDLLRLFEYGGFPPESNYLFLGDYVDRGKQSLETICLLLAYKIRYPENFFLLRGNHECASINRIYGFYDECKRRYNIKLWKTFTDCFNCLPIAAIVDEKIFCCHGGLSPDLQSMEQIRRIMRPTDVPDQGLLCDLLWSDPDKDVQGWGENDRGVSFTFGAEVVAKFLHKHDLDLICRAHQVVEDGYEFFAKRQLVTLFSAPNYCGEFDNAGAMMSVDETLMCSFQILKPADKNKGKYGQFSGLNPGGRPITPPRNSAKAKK

The target in this assay is T1, Cyclin L1 (UniProt Q52KE7).
T1 sequence: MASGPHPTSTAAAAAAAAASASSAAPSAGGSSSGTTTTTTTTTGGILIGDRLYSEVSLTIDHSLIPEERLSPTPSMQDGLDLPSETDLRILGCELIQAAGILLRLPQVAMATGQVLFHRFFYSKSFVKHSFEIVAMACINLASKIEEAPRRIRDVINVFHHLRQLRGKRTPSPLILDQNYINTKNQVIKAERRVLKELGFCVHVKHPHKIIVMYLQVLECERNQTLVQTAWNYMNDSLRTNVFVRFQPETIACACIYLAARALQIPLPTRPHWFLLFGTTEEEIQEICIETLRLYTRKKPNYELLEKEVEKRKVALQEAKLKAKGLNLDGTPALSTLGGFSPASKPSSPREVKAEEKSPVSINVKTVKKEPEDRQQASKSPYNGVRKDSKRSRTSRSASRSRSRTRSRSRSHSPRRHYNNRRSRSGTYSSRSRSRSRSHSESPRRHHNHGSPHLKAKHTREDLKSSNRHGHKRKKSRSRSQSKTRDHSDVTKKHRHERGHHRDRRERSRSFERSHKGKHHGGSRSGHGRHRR
The assay is described as follows: co-IP; Co-IP of CCNL1 and PPP1CA (Supplementary Fig. 8a); cells and direction not told in the main text.

For “PPP1CA (from UniProt P62137 1-330) (enzyme)”, the binding entry was “binds”.

Source of the values: publication PMC10282026.
